Paper PMC6237130, “Disarming the virulence arsenal of Pseudomonas aeruginosa by blocking two-component system signaling” (Chemical Science, 2018)

Experiments:
P. aeruginosa PA14 [1] = experiment: Growth of PA14 cultures with inhibitors (OD620, CFU); assay type: cell-based, Pseudomonas aeruginosa; settings: Table S3, PA14 cultures for metabolomics, 200 µM, 37 °C
P. aeruginosa PA14 [2] = experiment: LC-MS/MS analyses of metabolites in PA14 culture supernatant; assay type: cell-based, Pseudomonas aeruginosa; settings: 200 μM, 9 h, 37 °C, relative to DMSO control, normalized to OD620
Experimental: LC-MS analyses of metabolites
P. aeruginosa PA14 strain was grown overnight (~16 h) in LB media at 37 °C and 200 RPM.
The overnight culture was diluted 1:100 in fresh LB media. 4 mL of this culture was added into a 15 mL borosilicate glass tube, to which Rilu-inhibitors in DMSO were added to a final concentration of 200 µM (for the control experiments, same amount of DMSO was added).
These cultures were grown for 9 h (late exponential phase) or 24 h (stationary phase) at 37 °C and 200 RPM. The OD620 values were measured using a spectrophotometer. 1 mL of each culture was placed in a 1.7 mL Eppendorf tube, centrifuged at 5,000 g for 5 min and the supernatant was removed from the cell pellets. The supernatants were directly analyzed on an ESI-LC-MS/MS instrument for metabolites and the cell pellets (from 9 h cultures) were further used for RNA extraction in q-PCR experiments. […]
instrument. Injections of 2 µ L were separated on Zorbax Eclipse plus C18 column (2.1 mm x 50 mm) and with mobile phases A (5% MeOH:95% water with 0.1% formic acid) and B (95% MeOH:5% water with 0.1% formic acid). […] Samples were measured in positive ion mode and data was collected in triplicate. Data were analyzed using the Agilent MassHunter Quantitative Analysis suite. […] The following ions were analyzed: […]

## Nc1nc2ccc(OC(F)(F)F)cc2s1 [Rilu-1, riluzole, reference compound]
P. aeruginosa PA14 [1]
  t = 9 h, OD620: 0.817
  t = 24 h, OD620: 1.63
P. aeruginosa PA14 [2]
  Increase of HHQ level: ~24%
